The record followed here is PubChem BioAssay AID1508600 (Functional Genomics Laboratory (NCATS/FGL), 2020).

Among all 53,000 sequences or so, about 3,700 (7%) were called active.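 Rule for the calls: active = gene knockdowns whose robust z-score for IL-1 alpha signal is at least 2 or at most -2, so actives lie on both sides; inactive = the rest.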 The list shows a part of the results.

This assay is described as follows: Components of the Cytosolic LPS Sensing Pathway: Gene Identification via Genome-wide siRNA Screen.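 Note: robust z of the log signal after scaling to non-targeting control siRNA wells of the plate.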 Particulars: RAW264.7 macrophages, IL-1a HTRF, actives lie on both sides, screened at 100 nM (by protocol), cells primed 5 h with Pam3CSK4 first. In short, it runs like this: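 Knockdown: 100 nM siRNA, 48h, RAW264.7. Stimulation: Pam3CSK4 5 h, then LipidA via TransIT-TKO 24 h. Output: supernatant IL-1a HTRF, negative-control-normalized, log robust z-score; viability by CellTiter-Glo.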
On to GGAAAUAGAGGUUUGUUCATT against G6pc2, for which the z-score was inactive: 1.58. To CGAAUACCUGAAGUGCAAATT against Art3 belongs inactive: 0.454. On to GCCCACGUUUUAAGUCUACTT against Ap1s3, for which the z-score was active: 3.69. On to GUCUCUUCUAAGCUCCAUCTT against Olfr486, for which the z-score was inactive: 0.775.

Turning to GCUAAAGAUGAGCGUACAUTT against Myh10, the z-score was inactive: 1.44. In the case of GAGGUUUGGCAGAAGUGCATT against Npff it was inactive: -1.95; in that of GGCUGCACAAAACGAGAUCTT against Tcirg1, inactive: -0.0738. To GCACCAGUCGGUAUUCACATT against C1qc belongs inactive: -0.665; to GCUCGUUGCAUAAAAAGAGTT against Creg2, inactive: -0.286.

For CCUAGAAGCUAAUUACCAATT against Saa4, the z-score is inactive: -0.946. For CCUGUCUAAGCCCUUGGUATT against Mpst, the z-score is inactive: 0.306. GGAGGAACCUAAUUGAAUGTT against Cmbl: the z-score was inactive: 0.183.

For the sequence GCUUCUUAAAGAUGCCGUCTT against Lgi4, the z-score was inactive: -0.181. Consider GGUUUUACUGUGAUGAACGTT against Pcyt1b, for which the z-score was inactive: -0.497.

Regarding GGGACUUCAACUUAGUUAUTT against Dppa1, the z-score is inactive: 0.845. As to GGAUAGCAUACAGUUGUAATT against Gabpb2, the z-score was inactive: -0.702. GGAGUCUGAAGAUGACAUGTT against Rplp1: the z-score is inactive: -0.775. In the case of GCAUAAUAGUAAAUGCCAUTT against Smyd1 it was inactive: 0.82; in that of GGAUUUCAUUCCAAACAUGTT against Hbs1l, inactive: -0.161; in that of GGAGGUGACCUGUAAUCCCTT against Msmb, inactive: 0.0151. To GGCAUUGCUGACUACAAACTT against Tcn2 belongs active: 2.15; to GGAUCGAACUGAGAACUUUTT against Zdhhc24, inactive: -0.156. CCUUUCAGCUUACAUUUAATT against Cyp4a12b: the z-score is inactive: -0.241. With GGUGACUUCCACUCUAACUTT against Sohlh2, the z-score was active: -2.57. To GCUUGGUAAAAUGAAAGUCTT against Klhl12 belongs inactive: 0.22. As for GCCAAAGUGUGUGUUGAAGTT against Gng11, the z-score was inactive: -0.296. To CCAAAGGCCAAAUAACAGUTT against Timm17a belongs inactive: 0.125; to GGAACUUUUGGCCAGCAAGTT against Opa1, inactive: 1.59. Take GCUUCAAACCUAAUACAUCTT against Mc3r: the z-score is inactive: 1.85.

With GGUCUCUUCAUGAUGGAUGTT against Akt1s1, the z-score is inactive: 0.731.
